# Laboratory results as given in the supplement of paper PMC8728848.
# Some of the results follow.
# Columns and labels:
# Assay in all cases: glycan array binding signal (z-score within array); higher = stronger binding
# Settings in all cases: glycan notation: IUPAC condensed, linker removed
# [1] = molecular target: Gal(b1-4)GlcNAc(b1-3)Gal(b1-4)GlcNAc(b1-3)Gal(b1-4)GlcNAc(b1-3)Gal(b1-4)GlcNAc(b1-2)[Gal(b1-4)GlcNAc(b1-3)Gal(b1-4)GlcNAc(b1-3)Gal(b1-4)GlcNAc(b1-3)Gal(b1-4)GlcNAc(b1-6)]Man(a1-6)[Gal(b1-4)GlcNAc(b1-3)Gal(b1-4)GlcNAc(b1-3)Gal(b1-4)GlcNAc(b1-3)Gal(b1-4)GlcNAc(b1-2)Man(a1-3)]Man(b1-4)GlcNAc(b1-4)[Fuc(a1-6)]GlcNAc
# In short: (§1)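 Arrays were curated from the Consortium for Functional Glycomics database, 3228 in total, and kept only where the protein sequence was available. Binding is expressed as a within-array Z-score. This score was averaged across arrays of the same protein sequence at different concentrations or buffers and across linkers, and negative values can be read as non-binding.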
# [2] = molecular target: Gal(b1-4)GlcNAc(b1-3)Gal(b1-4)GlcNAc(b1-3)Gal(b1-4)GlcNAc(b1-3)Gal(b1-4)GlcNAc(b1-3)Gal(b1-4)GlcNAc(b1-2)Man(a1-3)[Gal(b1-4)GlcNAc(b1-3)Gal(b1-4)GlcNAc(b1-3)Gal(b1-4)GlcNAc(b1-3)Gal(b1-4)GlcNAc(b1-3)Gal(b1-4)GlcNAc(b1-2)Man(a1-6)]Man(b1-4)GlcNAc(b1-4)GlcNAc
# In short: as §1
# [3] = molecular target: Gal(b1-4)GlcNAc(b1-3)Gal(b1-4)GlcNAc(b1-3)Gal(b1-4)GlcNAc(b1-3)Gal(b1-4)GlcNAc(b1-3)Gal(b1-4)GlcNAc(b1-2)Man(a1-3)[Gal(b1-4)GlcNAc(b1-3)Gal(b1-4)GlcNAc(b1-3)Gal(b1-4)GlcNAc(b1-3)Gal(b1-4)GlcNAc(b1-3)Gal(b1-4)GlcNAc(b1-2)Man(a1-6)]Man(b1-4)GlcNAc(b1-4)[Fuc(a1-6)]GlcNAc
# In short: as §1
# [4] = molecular target: Gal(b1-4)GlcNAc(b1-3)Gal(b1-4)GlcNAc(b1-3)Gal(b1-4)GlcNAc(b1-3)Gal(b1-4)GlcNAc(b1-3)Gal(b1-4)GlcNAc(b1-2)[Gal(b1-4)GlcNAc(b1-3)Gal(b1-4)GlcNAc(b1-3)Gal(b1-4)GlcNAc(b1-3)Gal(b1-4)GlcNAc(b1-3)Gal(b1-4)GlcNAc(b1-6)]Man(a1-6)[Gal(b1-4)GlcNAc(b1-3)Gal(b1-4)GlcNAc(b1-3)Gal(b1-4)GlcNAc(b1-3)Gal(b1-4)GlcNAc(b1-3)Gal(b1-4)GlcNAc(b1-2)Man(a1-3)]Man(b1-4)GlcNAc(b1-4)[Fuc(a1-6)]GlcNAc
# In short: as §1
# [5] = molecular target: Gal(b1-4)GlcNAc(b1-3)Gal(b1-4)GlcNAc(b1-3)Gal(b1-4)GlcNAc(b1-3)Gal(b1-4)GlcNAc(b1-3)Gal(b1-4)GlcNAc(b1-3)Gal(b1-4)GlcNAc(b1-2)Man(a1-3)[Gal(b1-4)GlcNAc(b1-3)Gal(b1-4)GlcNAc(b1-3)Gal(b1-4)GlcNAc(b1-3)Gal(b1-4)GlcNAc(b1-3)Gal(b1-4)GlcNAc(b1-3)Gal(b1-4)GlcNAc(b1-2)Man(a1-6)]Man(b1-4)GlcNAc(b1-4)GlcNAc
# In short: as §1
# [6] = molecular target: Gal(b1-4)GlcNAc(b1-3)Gal(b1-4)GlcNAc(b1-3)GalNAc
# In short: as §1
# [7] = molecular target: Gal(b1-4)GlcNAc(b1-3)Gal(b1-4)GlcNAc(b1-3)[Gal(b1-4)GlcNAc(b1-3)Gal(b1-4)GlcNAc(b1-6)]GalNAc
# In short: as §1
# [8] = molecular target: Gal(b1-4)GlcNAc(b1-3)Gal(b1-4)GlcNAc(b1-6)[Gal(b1-3)]GalNAc
# In short: as §1
# [9] = molecular target: Gal(b1-4)GlcNAc(b1-3)Gal(b1-4)[Fuc(a1-3)]GlcNAc(b1-3)Gal(b1-4)[Fuc(a1-3)]GlcNAc
# In short: as §1
# [10] = molecular target: Gal(b1-4)GlcNAc(b1-3)GalNAc
# In short: as §1
# [11] = molecular target: Gal(b1-4)GlcNAc(b1-3)[Fuc(a1-3)GlcNAc(b1-6)]Gal(b1-4)Glc
# In short: as §1
# [12] = molecular target: Gal(b1-4)GlcNAc(b1-3)[Gal(b1-4)GlcNAc(b1-6)]Gal(b1-4)GlcNAc
# In short: as §1
# [13] = molecular target: Gal(b1-4)GlcNAc(b1-3)[GlcNAc(b1-6)]Gal(b1-4)GlcNAc
# In short: as §1
# [14] = molecular target: Gal(b1-4)GlcNAc(b1-6)Gal(b1-4)GlcNAc
# In short: as §1
# [15] = molecular target: Gal(b1-4)GlcNAc(b1-6)GalNAc
# In short: as §1
# [16] = molecular target: Gal(b1-4)GlcNAc(b1-6)[Gal(b1-3)]GalNAc
# In short: as §1
# [17] = molecular target: Gal(b1-4)GlcNAc(b1-6)[Gal(b1-4)GlcNAc(b1-3)]GalNAc
# In short: as §1
# [18] = molecular target: Gal(b1-4)GlcNAc6P
# In short: as §1
# [19] = molecular target: Gal(b1-6)Gal
# In short: as §1
# [20] = molecular target: Gal3S(b1-3)GalNAc
# In short: as §1
# [21] = molecular target: Gal3S(b1-3)GlcNAc
# In short: as §1
# [22] = molecular target: Gal3S(b1-3)[Fuc(a1-4)]GlcNAc
# In short: as §1
# [23] = molecular target: Gal3S(b1-4)Glc
# In short: as §1
binder,measurement,setting,value
HFR-3 (Triticum aestivum) (protein) MKGLLLCALALAFAAVTTHAQLQSCPTRCGKQADGMECPNNLCCSKDGYCGLGVDYCSAGAGCQSGACYDNKICGAQANGTLCRNNHCCSSGGRCGYGREYCSNGCQGGPCWADLKCGHLDNGKLCPNNLCCSQYGYCGLGPEFCGTGCQNGACSTDKPCGNKANGAPCTNNYCCSQYGSCGLGKDYCGTGCQNGACN,glycan array binding signal (z-score),[1],-0.012
same,glycan array binding signal (z-score),[2],0.374
same,glycan array binding signal (z-score),[3],0.11
same,glycan array binding signal (z-score),[4],0.356
same,glycan array binding signal (z-score),[5],0.492
same,glycan array binding signal (z-score),[6],0.2
same,glycan array binding signal (z-score),[7],0.425
same,glycan array binding signal (z-score),[8],0.491
same,glycan array binding signal (z-score),[9],0.122
same,glycan array binding signal (z-score),[10],0.237
same,glycan array binding signal (z-score),[11],-0.324
same,glycan array binding signal (z-score),[12],-0.232
same,glycan array binding signal (z-score),[13],-0.381
same,glycan array binding signal (z-score),[14],-0.737
same,glycan array binding signal (z-score),[15],-0.958
same,glycan array binding signal (z-score),[16],-1.15
same,glycan array binding signal (z-score),[17],0.231
same,glycan array binding signal (z-score),[18],0.048
same,glycan array binding signal (z-score),[19],-0.638
same,glycan array binding signal (z-score),[20],1.67
same,glycan array binding signal (z-score),[21],-0.244
same,glycan array binding signal (z-score),[22],1.1
same,glycan array binding signal (z-score),[23],1.09

# 2 entries drawn at random from the list so far, as already listed:
binder,measurement,setting,value
HFR-3 (Triticum aestivum) (protein) MKGLLLCALALAFAAVTTHAQLQSCPTRCGKQADGMECPNNLCCSKDGYCGLGVDYCSAGAGCQSGACYDNKICGAQANGTLCRNNHCCSSGGRCGYGREYCSNGCQGGPCWADLKCGHLDNGKLCPNNLCCSQYGYCGLGPEFCGTGCQNGACSTDKPCGNKANGAPCTNNYCCSQYGSCGLGKDYCGTGCQNGACN,glycan array binding signal (z-score),[3],0.11
same,glycan array binding signal (z-score),[18],0.048
